Source: publication PMC7819943, “Rice protein-binding microarrays: a tool to detect cis-acting elements near promoter regions in rice”
This is one part of the list.

These sequences were tested against T1, OsSMF1 (Oryza sativa, UniProt Q6ZLB0 1-436) (assay: protein-binding microarray (RPBM); PBS, 2% BSA, 51.3 ng/ul salmon testes DNA, 50 uM zinc acetate, 200 nM TF, 25 C, 1 h; high values mean tight binding). Settings: protein: recombinant; tags: N-terminal polyhistidine and DsRed monomer fusion (pET32a); chain copies: 2; label: CyDye5-dUTP incorporated in the synthesized complementary strand; 3' TTTTT single-stranded linker to array surface; dsDNA, one strand shown.
T1 sequence: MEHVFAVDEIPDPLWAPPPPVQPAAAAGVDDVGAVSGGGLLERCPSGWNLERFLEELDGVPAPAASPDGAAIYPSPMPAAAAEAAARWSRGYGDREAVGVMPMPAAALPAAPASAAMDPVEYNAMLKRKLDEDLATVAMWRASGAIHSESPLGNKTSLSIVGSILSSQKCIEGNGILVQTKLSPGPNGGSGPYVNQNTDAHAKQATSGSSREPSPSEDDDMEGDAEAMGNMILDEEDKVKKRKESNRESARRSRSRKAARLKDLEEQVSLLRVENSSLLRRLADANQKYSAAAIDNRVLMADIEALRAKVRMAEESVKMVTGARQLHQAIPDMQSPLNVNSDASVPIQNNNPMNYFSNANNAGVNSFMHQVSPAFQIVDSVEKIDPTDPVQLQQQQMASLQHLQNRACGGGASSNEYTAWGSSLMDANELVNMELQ
Summary of the method: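 Transcription factors were made in E. coli BL21-CodonPlus as N-terminal fusions to a polyhistidine tag and DsRed, then purified on Ni–NTA. After primer extension with Cy5-dUTP and blocking with 2% BSA, a custom Agilent array was exposed for 1 h at 25 °C to 200 nM protein in PBS, 2% BSA, salmon testes DNA and 50 µM zinc acetate. Washed arrays were scanned on an Axon 4000B, and the binding signal is per-feature fluorescence intensity in arbitrary units.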
“ATGCAGCCACACGGATGTTGGACGTCATTGTCTATAGTGTCGGAGTCACCTAGTGCAG” was tested, and the binding signal was 4580 fluorescence intensity (a.u.). “GACGTGCGCAGTGACGCAGCATCCCTCGTCTCCGCTATTTCGGAGTCACCTAGTGCAG” was tested, and the binding signal was 7830 fluorescence intensity (a.u.). In the case of “ATGCGCACTTTCCCTGTAAGTACACACGTACACTGTACCCCGGAGTCACCTAGTGCAG”, the binding signal is reported as 3180 fluorescence intensity (a.u.). In the case of “TTTTGTTTACTTGGAGATTTGTGATATCATCTTGACCATGCGGAGTCACCTAGTGCAG”, the binding signal is reported as 3760 fluorescence intensity (a.u.). With “GGAAAACACGATGGAATAGCTCACCCCAACTTCCGTTTCGCGGAGTCACCTAGTGCAG” the binding signal was 3320 fluorescence intensity (a.u.). In the case of “ACTCTCTGGTTTGTCATGTGTTACACCCAATTGTCATCAGCGGAGTCACCTAGTGCAG”, the binding signal is reported as 3520 fluorescence intensity (a.u.). “ATTTAAATCAATGTTGATGATGTAGCACTTTTGAATTCATCGGAGTCACCTAGTGCAG” was tested, and the binding signal was 3380 fluorescence intensity (a.u.). “GAATCCACGTGTTAGTGACGCACATCCCTCTAAAGTACGTCGGAGTCACCTAGTGCAG” was tested, and the binding signal was 13900 fluorescence intensity (a.u.). For “GGGTTGACCAGCCAGGCAGGCTCGACTCAAGCCCGACCCCCGGAGTCACCTAGTGCAG”, the binding signal was 18300 fluorescence intensity (a.u.). With “AGTACTAGTTGGAATCATATGTGTCTATGGAGTATATTTTCGGAGTCACCTAGTGCAG” the binding signal was 3160 fluorescence intensity (a.u.). In the case of “CACCTATCCATCCATCCATGTGTGGTGTCGTGTCAGCGTTCGGAGTCACCTAGTGCAG”, the binding signal is reported as 6950 fluorescence intensity (a.u.). For “CAGAAACAAAGAACCCGTCATCCCCACGGCCGCTTCTCTCCGGAGTCACCTAGTGCAG”, the binding signal was 3850 fluorescence intensity (a.u.). With “CCGGATATGTTCTCGTAGTTTATATACGTTCATGATGACACGGAGTCACCTAGTGCAG” the binding signal was 3450 fluorescence intensity (a.u.). “TTAGTGCATGCTGCTAACTAAATACACGTAGCTTGTTGATCGGAGTCACCTAGTGCAG” was tested, and the binding signal was 3310 fluorescence intensity (a.u.). With “CGAAGAAAGTTTACAGCCCACGTATCTGCTATATATGGGCCGGAGTCACCTAGTGCAG” the binding signal was 3610 fluorescence intensity (a.u.). “GACCACGTGGCCGCCACCTCAGCCACCCGGCCCCGCTTGACGGAGTCACCTAGTGCAG” was tested, and the binding signal was 13800 fluorescence intensity (a.u.). In the case of “AGACACTTTTGCAGGGATTGCTCAGACTTAGTTTCAGAGTCGGAGTCACCTAGTGCAG”, the binding signal is reported as 3940 fluorescence intensity (a.u.). With “CGACGCGGCGGCGAAAAGTCGGCGAACTGCGGCGAGGTGGCGGAGTCACCTAGTGCAG” the binding signal was 30100 fluorescence intensity (a.u.). In the case of “TTCGCTCTCCGCCCACTTCCCCATCACGCGCGAGCGCTGCCGGAGTCACCTAGTGCAG”, the binding signal is reported as 4600 fluorescence intensity (a.u.). For “TTTATTGTAATGACGTGCGCAACACGGCAGAATTTTATGTCGGAGTCACCTAGTGCAG”, the binding signal was 4820 fluorescence intensity (a.u.). For “GATACATGTGTATGACATGTGGGACCAGATACTAATTATGCGGAGTCACCTAGTGCAG”, the binding signal was 19300 fluorescence intensity (a.u.). “ACGGATGGGTGGGACCCACGTGGACACGTGGCCAAACGGCCGGAGTCACCTAGTGCAG” was tested, and the binding signal was 12200 fluorescence intensity (a.u.). “GTTGCAACCACAGCCGTCCGGCACTGTACGCTACTGTTTTCGGAGTCACCTAGTGCAG” was tested, and the binding signal was 30600 fluorescence intensity (a.u.). “ACCCAACCACCGGCTGTTGCATCCACGCCACCGTGTCGTGCGGAGTCACCTAGTGCAG” was tested, and the binding signal was 4840 fluorescence intensity (a.u.). “TGATTCCACACATTCGGTGTGCGCCGCGTCCACGCCGCCCCGGAGTCACCTAGTGCAG” was tested, and the binding signal was 4660 fluorescence intensity (a.u.). With “GGAGATGGAGCTAGGGTTTGGGCGGCGGCGGCGCGCCGAGCGGAGTCACCTAGTGCAG” the binding signal was 19600 fluorescence intensity (a.u.). In the case of “AACACACCCTAAAGGAGTATACCAATGTACCATGATGACTCGGAGTCACCTAGTGCAG”, the binding signal is reported as 3830 fluorescence intensity (a.u.). In the case of “CACTGGTACACGGAGTATATACACACACCACTAGTCCCGTCGGAGTCACCTAGTGCAG”, the binding signal is reported as 3150 fluorescence intensity (a.u.). In the case of “TAGAAAGTCTCTCTTGTCAGTGTCACTGATCGATATATCGCGGAGTCACCTAGTGCAG”, the binding signal is reported as 4930 fluorescence intensity (a.u.). With “GGCGGCGTGGAGCTGCGAGGGCAGTGGCGGCGGGGAGCTGCGGAGTCACCTAGTGCAG” the binding signal was 3230 fluorescence intensity (a.u.). In the case of “GCGTGGAGTGGAGAGTGGAGAGGCATGGGAGGCATGGCAGCGGAGTCACCTAGTGCAG”, the binding signal is reported as 42900 fluorescence intensity (a.u.). “ACGATCCAATCTTCATGTTTGTCCTAATGACGTTGCGACTCGGAGTCACCTAGTGCAG” was tested, and the binding signal was 4850 fluorescence intensity (a.u.). With “AACTAAACTCCGCGTTAGTATGACATGTAAGCCCCACAGTCGGAGTCACCTAGTGCAG” the binding signal was 3810 fluorescence intensity (a.u.). “ATGGCAAGCAACGCGTCAACGATGACGACGGTGGTGTGCGCGGAGTCACCTAGTGCAG” was tested, and the binding signal was 5680 fluorescence intensity (a.u.). With “AACGTCACTGACAAGTGGGACCCTATACGTGGGATCACTCCGGAGTCACCTAGTGCAG” the binding signal was 3880 fluorescence intensity (a.u.). For “CCCCTTATTTCTCTGCCAAGTGCCAACTCAGCATATTAGTCGGAGTCACCTAGTGCAG”, the binding signal was 12600 fluorescence intensity (a.u.). In the case of “ATCCCAAATCACCCGTCACCGGCGGCCACGACCGCACCCGCGGAGTCACCTAGTGCAG”, the binding signal is reported as 4060 fluorescence intensity (a.u.). In the case of “CACCAGGCACCGACTGCCGTAGTGTCACCGGCCACAGTGCCGGAGTCACCTAGTGCAG”, the binding signal is reported as 3220 fluorescence intensity (a.u.). For “CGCAAACATTTTCGGAATATACGAATCCAGCGTTGCACTGCGGAGTCACCTAGTGCAG”, the binding signal was 3250 fluorescence intensity (a.u.). For “CCTGCCAACCCCATCCCAGCCCTACACGTGTCCATCCTCACGGAGTCACCTAGTGCAG”, the binding signal was 11600 fluorescence intensity (a.u.). In the case of “CACCTGAATAAAGTTCAGTCCATCTCCTCACTTATTTAACCGGAGTCACCTAGTGCAG”, the binding signal is reported as 22600 fluorescence intensity (a.u.). With “GACCATCACCGTGTCGCGGTGTCGGTAATGGTAAGCAGTACGGAGTCACCTAGTGCAG” the binding signal was 5120 fluorescence intensity (a.u.).
